Values from PubChem BioAssay AID1259308 (NCATS, 2017).

- Assay: 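Genes whose loss raises luciferase production in HEK293 cells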 (primary screen)
- System: human HEK293 embryonic kidney cells stably expressing firefly luciferase (HEK-CMV-Luc2-Hygro)
- Knock-down reagent: single siRNA against human genes, 0.8 pmol siRNA per well
- Time to read-out: 72 h
- Measured: 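Luciferase light (ONE-Glo) measured on one replicate plate set and viability (CellTiter-Glo) on the other, scaled to a negative control siRNA, with robust z-scores and luciferase per cell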
- Direction: total luciferase, z-score and total luciferase, % of control: higher = more reporter protein produced
- Hit rule: 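Active when the median/MAD z-score for overall luciferase is greater than 3; a gene was taken forward for validation with new siRNAs if at least two of its three siRNAs passed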
- Meaning of the calls: active = raised luciferase; inactive = no rise
In all, the deposit lists about 59,000 reagents; shown is a part drawn at random. Over the whole deposit, about 1,510 (2.6%) are marked active. 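Calls use total luciferase alone and ignore viability, so some active siRNAs may act by altering cell number.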 Entries without a mark were called inactive. The numbers tell different reagents against one gene apart. Further read-outs or replicates are left out here.

Gene	siRNA no.	total luciferase, z-score	total luciferase, % of control
DNAJC5G (DnaJ heat shock protein family (Hsp40) member C5 gamma)	1	0.326	88.4
DNAJC5G (DnaJ heat shock protein family (Hsp40) member C5 gamma)	2	-0.809	65.8
DNAJC5G (DnaJ heat shock protein family (Hsp40) member C5 gamma)	3	-0.324	75.4
AMMECR1L (AMMECR1 like)	1	0.00767	82
AMMECR1L (AMMECR1 like)	2	0.349	88.8
AMMECR1L (AMMECR1 like)	3	-0.728	67.4
SIGLEC5 (sialic acid binding Ig like lectin 5)	1	-0.321	75.5
SIGLEC5 (sialic acid binding Ig like lectin 5)	2	0.856	98.9
SIGLEC5 (sialic acid binding Ig like lectin 5)	3	-0.381	74.3
OR2T2 (olfactory receptor family 2 subfamily T member 2)	1	-0.923	63.5
OR2T2 (olfactory receptor family 2 subfamily T member 2)	2	0.713	96.1
OR2T2 (olfactory receptor family 2 subfamily T member 2)	3	0.403	89.9
VMAC	1	-1.46	52.9
VMAC	2	0.737	96.5
VMAC	3	0.744	96.7
S1PR3 (sphingosine-1-phosphate receptor 3)	1	0.00149	81.9
S1PR3 (sphingosine-1-phosphate receptor 3)	2	-0.455	72.8
S1PR3 (sphingosine-1-phosphate receptor 3)	3	-0.0342	81.2
S1PR3 (sphingosine-1-phosphate receptor 3)	4	0.517	92.2
S1PR3 (sphingosine-1-phosphate receptor 3)	5	-0.238	77.2
S1PR3 (sphingosine-1-phosphate receptor 3)	6	0.521	92.2
KERA (keratocan)	1	2.36	129
KERA (keratocan)	2	-0.557	70.8
KERA (keratocan)	3	-1.23	57.5

A few values from above.
For “total luciferase, z-score”, SIGLEC5 (sialic acid binding Ig like lectin 5) #3 reads -0.381
SIGLEC5 (sialic acid binding Ig like lectin 5) #2, total luciferase, z-score = 0.856

Continued.
Gene	siRNA no.	total luciferase, z-score	total luciferase, % of control
PHF1 (PHD finger protein 1)	1	-0.12	79.5
PHF1 (PHD finger protein 1)	2	-1.37	54.7
PHF1 (PHD finger protein 1)	3	-1.33	55.4
FOSL1 (FOS like 1, AP-1 transcription factor subunit)	1	-0.48	72.3
FOSL1 (FOS like 1, AP-1 transcription factor subunit)	2	-0.891	64.2
FOSL1 (FOS like 1, AP-1 transcription factor subunit)	3	0.597	93.8
RBL1 (RB transcriptional corepressor like 1)	1	1.6	114
RBL1 (RB transcriptional corepressor like 1)	2	0.763	97.1
RBL1 (RB transcriptional corepressor like 1)	3	0.76	97
NSUN5 (NOP2/Sun RNA methyltransferase 5)	1	-0.165	78.6
NSUN5 (NOP2/Sun RNA methyltransferase 5)	2	0.0183	82.3
NSUN5 (NOP2/Sun RNA methyltransferase 5)	3	0.325	88.4
LIN37 (lin-37 DREAM MuvB core complex component)	1	-0.698	68
LIN37 (lin-37 DREAM MuvB core complex component)	2	0.981	101
LIN37 (lin-37 DREAM MuvB core complex component)	3	2.16	125
